Assay results from article PMC11024197.
Results are given in words; binding and its absence hold for the method and conditions named. Some binding calls cover weakened binding; strength is not graded here.

Protein sequences, listed by entry. Tags and fused reporters are not part of them. Lines headed by an entry give the natural chain unless they say otherwise; changes in a name come on top. Chains listed by the source or under a name are the forms on record and can include a tag or linker. Residues count along the entry.
PEX13 SH3 domain (residues 261-346) (Q92968, residues 261-346): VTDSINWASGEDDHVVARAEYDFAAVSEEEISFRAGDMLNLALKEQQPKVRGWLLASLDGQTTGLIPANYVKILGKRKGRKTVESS
PEX13 C-terminal peptide (351-403) with WT FxxxF motif (Q92968, form named): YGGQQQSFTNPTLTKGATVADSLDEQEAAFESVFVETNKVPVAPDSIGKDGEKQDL
PEX13 SH3 triple mutant V275Y/V276E/K304G (YEG) (Q92968, form named): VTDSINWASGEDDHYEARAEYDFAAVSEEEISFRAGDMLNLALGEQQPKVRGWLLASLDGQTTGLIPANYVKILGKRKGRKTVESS

Tests used:
[1] = molecular target: PEX13 SH3 domain (residues 261-346) (human) (UniProt Q92968); assay: NMR titration; 15N-labelled PEX13 construct (100 µM reference) with unlabelled ligand added; 1H,15N correlation spectra; 298 K; 20 mM Tris pH 7.5, 50 mM NaCl; both purified
[2] = molecular target: PEX13 SH3 triple mutant V275Y/V276E/K304G (YEG) (human) (UniProt Q92968); assay: as above

Row | binding [1] | binding [2] | Substance
1 | binds |  | PEX13 C-terminal peptide (351-403) with WT FxxxF motif (from UniProt Q92968 351-403)
2 |  | binds | PEX13 PxxP peptide (49-61) (from UniProt Q92968 49-61)
